{
  "source": "paper PMC5996148",
  "test_in_all_cases": "protein microarray (ProtoArray v5.0), streptavidin-Alexa Fluor 647",
  "conditions_in_all_cases": "3'-biotin; 20 mM Tris (pH 7.5), 5 mM MgCl2, 100 mM KCl, 0.1% Tween-20, A/T-rich and random oligonucleotide blockers; temperature not stated; high values mean tight binding",
  "key": {"TM4SF19 (human)": {"system": "TM4SF19 (human)"}, "TMEM103 (human)": {"system": "TMEM103 (human)"}, "TMEM138 (human)": {"system": "TMEM138 (human)"}, "TMEM139 (human)": {"system": "TMEM139 (human)"}, "TMEM149 (human)": {"system": "TMEM149 (human)"}, "TMEM159 (human)": {"system": "TMEM159 (human)"}, "TMEM17 (human)": {"system": "TMEM17 (human)"}, "TMEM182 (human)": {"system": "TMEM182 (human)"}, "TMEM185A (human)": {"system": "TMEM185A (human)"}, "TMEM19 (human)": {"system": "TMEM19 (human)"}},
  "note": "Some of the results follow.",
  "data": [
    {"sequence": "GGGGACAGGGGTATGGGGAGGGG [G4-3 biotinylated (CtG)]", "values": [
      {"measurement": "binding signal", "setting": "TM4SF19 (human)", "result": -0.319, "unit": "z-score"},
      {"measurement": "binding signal", "setting": "TMEM103 (human)", "result": -0.321, "unit": "z-score"},
      {"measurement": "binding signal", "setting": "TMEM138 (human)", "result": -0.327, "unit": "z-score"},
      {"measurement": "binding signal", "setting": "TMEM139 (human)", "result": -0.301, "unit": "z-score"},
      {"measurement": "binding signal", "setting": "TMEM149 (human)", "result": -0.323, "unit": "z-score"},
      {"measurement": "binding signal", "setting": "TMEM159 (human)", "result": -0.332, "unit": "z-score"},
      {"measurement": "binding signal", "setting": "TMEM17 (human)", "result": -0.321, "unit": "z-score"},
      {"measurement": "binding signal", "setting": "TMEM182 (human)", "result": -0.327, "unit": "z-score"},
      {"measurement": "binding signal", "setting": "TMEM185A (human)", "result": -0.319, "unit": "z-score"},
      {"measurement": "binding signal", "setting": "TMEM19 (human)", "result": -0.334, "unit": "z-score"}
    ]}
  ]
}
